# From PubChem BioAssay AID192 (DTP/NCI, 2004)
# The list shows only some results of the screen, not a fair sample: it gathers tests that were run many times, whatever their T/C, doses with no T/C, and many T/C values between a quarter and a half above the control. Other doses and runs of a compound stand elsewhere. T/C is the treated group as % of the vehicle group. Some doses have a count of surviving animals in place of a T/C: the source holds a T/C of zero for them, seemingly a mark for toxic or unscored doses. Some doses without a T/C left all or most animals alive at the check, yet need not have been tolerated: survival well below the control is almost never listed, so the zero probably covers shortened survival too. Survivors were counted at the toxicity check, usually on the fifth day, unless a day is given; later deaths do not show. Schedules are NCI's codes, read here as Q, the interval in days (D) or hours (H), X, the number of doses. Some molecules as drawn cover several salts, stereoisomers or complexes of the source; a dose is that of the sample tested. Some doses were run more than once; the values are given in rising order. Counts like (3×) say how often a value occurs here. For survival time, this PubChem deposit counts one and a half times the control or more as active, and values a quarter to a half above the control carry no call in these data; other NCI protocols may use other cut-offs. Some T/C values are followed by the survivors on the day toxicity was checked, most often the fifth; where none is given, no animal had died by that day.
# System: BDF1 mice, B16 melanoma ip, median survival T/C
# Test: NCI In Vivo Anticancer Drug Screen. Data for tumor model B16 Melanoma (intraperitoneal) in B6D2F1 (BDF1) mice
# Details: T/C endpoint: median survival time, higher T/C = longer survival
# Method: The antitumor activity of compounds was measured in mice bearing transplantable tumors. Survival or tumor size were measured and the results are expressed as the measurement made in the treated group (T) divided by the measurement made in the vehicle treated control group (C). The tumor model used in this assay is B16 Melanoma (intraperitoneal) in B6D2F1 (BDF1) mice
# [1] = dose: 150.0 mg/kg/injection, schedule: Q01DX001 (ip), vehicle: Klucel (hydroxypropylcellulose) (HPC)
smiles,measurement,setting,value
O=C1c2ccccc2C(=O)c2c(NCCNCCO)ccc(NCCNCCO)c21,survivor count,"dose: 32.0 mg/kg/injection, schedule: Q03HX008 (ip), vehicle: acid diluted with saline",4 of 10
same,survivor count,"dose: 32.0 mg/kg/injection, schedule: Q03HX008 (ip), vehicle: saline",4 of 10
same,survivor count,"dose: 32.0 mg/kg/injection, schedule: Q03HX016 (ip), vehicle: acid diluted with saline",3 of 10
same,survivor count,"dose: 32.0 mg/kg/injection, schedule: Q03HX024 (ip), vehicle: acid diluted with saline",4 of 10
same,T/C,"dose: 32.0 mg/kg/injection, schedule: Q08DX002 (ip), vehicle: saline",146 % of control
same,survivor count,"dose: 62.5 mg/kg/injection, schedule: Q01DX009 (ip), vehicle: Klucel (hydroxypropylcellulose) (HPC)",10 of 10
same,survivor count,"dose: 64.0 mg/kg/injection, schedule: Q01DX005 (ip), vehicle: acid diluted with saline",10 of 10
same,survivor count,"dose: 64.0 mg/kg/injection, schedule: Q01DX005 (ip), vehicle: saline",10 of 10
same,survivor count,"dose: 64.0 mg/kg/injection, schedule: Q01DX005 (iv), vehicle: saline",2 of 10
same,survivor count,"dose: 64.0 mg/kg/injection, schedule: Q01DX009 (ip), vehicle: Klucel (hydroxypropylcellulose) (HPC)",10 of 10
same,survivor count,"dose: 64.0 mg/kg/injection, schedule: Q01DX009 (ip), vehicle: acid diluted with saline",8 of 10
same,survivor count,"dose: 64.0 mg/kg/injection, schedule: Q01DX009 (ip), vehicle: saline with Tween-80",9 of 10
same,survivor count,"dose: 64.0 mg/kg/injection, schedule: Q01DX009 (ip), vehicle: saline","6 of 10, 7 of 10, 9 of 10, 10 of 10 (2×)"
same,survivor count,"dose: 64.0 mg/kg/injection, schedule: Q01DX009 (ip), vehicle: water",5 of 10 and 10 of 10
same,survivor count,"dose: 64.0 mg/kg/injection, schedule: Q01DX009 (sc), vehicle: acid diluted with saline",10 of 10
same,survivor count,"dose: 64.0 mg/kg/injection, schedule: Q01DX009 (sc), vehicle: saline",10 of 10
same,survivor count,"dose: 64.0 mg/kg/injection, schedule: Q02DX009 (ip), vehicle: saline with Tween-80",8 of 10
same,survivor count,"dose: 64.0 mg/kg/injection, schedule: Q02DX009 (ip), vehicle: saline",7 of 10
same,survivor count,"dose: 64.0 mg/kg/injection, schedule: Q03HX008 (ip), vehicle: acid diluted with saline",0 of 10
same,survivor count,"dose: 64.0 mg/kg/injection, schedule: Q04DX003 (ip), vehicle: acid diluted with saline",10 of 10
same,T/C,"dose: 75.0 mg/kg/injection, schedule: Q01DX001 (ip), vehicle: Klucel (hydroxypropylcellulose) (HPC)","104 [8 of 10 alive], 114 [7 of 10 alive], 141, 173 % of control"
same,survivor count,"dose: 100.0 mg/kg/injection, schedule: Q01DX001 (ip), vehicle: water",8 of 10
same,survivor count,"dose: 125.0 mg/kg/injection, schedule: Q01DX009 (ip), vehicle: Klucel (hydroxypropylcellulose) (HPC)",10 of 10
same,survivor count,"dose: 128.0 mg/kg/injection, schedule: Q01DX001 (ip), vehicle: acid diluted with saline",5 of 10
same,survivor count,"dose: 128.0 mg/kg/injection, schedule: Q01DX001 (ip), vehicle: saline",8 of 10
same,T/C,"dose: 128.0 mg/kg/injection, schedule: Q01DX001 (sc), vehicle: acid diluted with saline",127 % of control
same,survivor count,"dose: 128.0 mg/kg/injection, schedule: Q01DX005 (ip), vehicle: acid diluted with saline",0 of 10
same,survivor count,"dose: 128.0 mg/kg/injection, schedule: Q01DX005 (iv), vehicle: saline",0 of 10
same,survivor count,"dose: 128.0 mg/kg/injection, schedule: Q01DX009 (ip), vehicle: Klucel (hydroxypropylcellulose) (HPC)",6 of 10
same,survivor count,"dose: 128.0 mg/kg/injection, schedule: Q01DX009 (ip), vehicle: water",9 of 10
same,survivor count,"dose: 128.0 mg/kg/injection, schedule: Q02DX009 (ip), vehicle: saline with Tween-80",3 of 10
same,survivor count,"dose: 128.0 mg/kg/injection, schedule: Q02DX009 (ip), vehicle: saline",10 of 10
same,survivor count,"dose: 128.0 mg/kg/injection, schedule: Q04DX003 (ip), vehicle: acid diluted with saline",2 of 10
same,survivor count,"dose: 128.0 mg/kg/injection, schedule: Q04DX003 (ip), vehicle: saline",10 of 10
same,survivor count,"dose: 128.0 mg/kg/injection, schedule: Q08DX002 (ip), vehicle: acid diluted with saline",5 of 10
same,T/C,[1],144 and 167 % of control [9 of 10 alive]
same,survivor count,[1],2 of 10 and 8 of 10
same,survivor count,"dose: 200.0 mg/kg/injection, schedule: Q01DX001 (ip), vehicle: water",3 of 10
same,survivor count,"dose: 256.0 mg/kg/injection, schedule: Q01DX001 (ip), vehicle: acid diluted with saline",1 of 10
same,T/C,"dose: 256.0 mg/kg/injection, schedule: Q01DX001 (sc), vehicle: acid diluted with saline",136 % of control [9 of 10 alive]
same,survivor count,"dose: 256.0 mg/kg/injection, schedule: Q01DX009 (oral), vehicle: acid diluted with saline",10 of 10
same,survivor count,"dose: 256.0 mg/kg/injection, schedule: Q01DX009 (oral), vehicle: saline",10 of 10
same,survivor count,"dose: 256.0 mg/kg/injection, schedule: Q04DX003 (ip), vehicle: acid diluted with saline",0 of 10
same,survivor count,"dose: 256.0 mg/kg/injection, schedule: Q08DX002 (ip), vehicle: acid diluted with saline",0 of 10
same,survivor count,"dose: 300.0 mg/kg/injection, schedule: Q01DX001 (ip), vehicle: Klucel (hydroxypropylcellulose) (HPC)","0 of 10, 7 of 10, 10 of 10"
same,survivor count,"dose: 400.0 mg/kg/injection, schedule: Q01DX001 (ip), vehicle: water",0 of 10
same,survivor count,"dose: 512.0 mg/kg/injection, schedule: Q01DX001 (ip), vehicle: acid diluted with saline",0 of 10
same,survivor count,"dose: 512.0 mg/kg/injection, schedule: Q01DX001 (oral), vehicle: acid diluted with saline",6 of 10
same,survivor count,"dose: 512.0 mg/kg/injection, schedule: Q01DX001 (sc), vehicle: acid diluted with saline",5 of 10
same,survivor count,"dose: 600.0 mg/kg/injection, schedule: Q01DX001 (ip), vehicle: Klucel (hydroxypropylcellulose) (HPC)",0 of 10 and 10 of 10
same,survivor count,"dose: 1024.0 mg/kg/injection, schedule: Q01DX001 (oral), vehicle: acid diluted with saline",8 of 10
same,survivor count,"dose: 1200.0 mg/kg/injection, schedule: Q01DX001 (ip), vehicle: Klucel (hydroxypropylcellulose) (HPC)",0 of 10 and 10 of 10
